From patent EP1380291A1, “PDE IV inhibitors for treating multiple sclerosis” (Schering Aktiengesellschaft, priority 1994, dated 1995)
At least one compound was matched to its structure with a doubt left.

Experiments:
[1] = test system: encephalitogenic CD4+ MBP-specific rat TCL (L1402); test: TNF/LT production by an encephalitogenic MBP-specific rat T-cell line, cytotoxicity bioassay; format: cell-based
Text: To assess the ability of rolipram alone or in various combinations as described to modify autoimmune processes, we investigated its influence on TNF production in vitro by MBP-specific T-cell lines from MS patients and Lewis rats. MBP is a major candidate antigen in MS, and T-cell-mediated immunity is of crucial importance in its pathogenesis. Similar to EAE, MBP-specific T-cells in humans are often cytotoxic, of Th1 type secreting interferon (IFN)-gamma and TNF/LT, and recognize epitopes that are also encephalitogenic in EAE.
Similar results were found using an encephalitogenic CD4+ MBP-specific rat TCL (L1402). […] Previous investigations had shown that inhibition of cAMP PDE by rolipram is stereospecific.
TNF and LT may both be produced by autoactive T-cells. CD4+ cells have been reported to be the major source of TFN in autoimmune insulitis of NOD mice. The cytokine bioassay for TNF/LT detection employed here is sensitive to TNF and LT, but is 200 times more sensitive to the former.

[2] = test system: human MBP-specific T-cell lines (TCL); test: TNF production in vitro by MBP-specific T-cell lines from MS patients; format: cell-based; conditions: alone and in combination
[3] = test system: Experimental Allergic Encephalomyelitis (EAE); test: Prevention of EAE by Rolipram treatment in marmosets immunized with human brain white matter homogenate; format: in vivo, Callithrix jacchus (common marmoset); conditions: 10 mg/kg in DMSO subcutaneously every 48 hours from day 5 following immunization, 8 week interval of observation
[4] = test system: EAE after active immunization (aEAE); test: EAE after active immunization (aEAE) in Lewis rats; format: in vivo
Experimental: The results of our in vivo findings prompted us to perform treatment experiments in EAE after active immunization (aEAE) and adoptive cell transfer (tEAE) in Lewis rats. […] In clinically manifest EAE, treatment was started within 6 hours of the onset of symptoms. […] In tEAE similar effects were observed. […] Treatment after onset of symptoms also lead to a marked reduction in maximum severity (treated group: MMS 0.7 ± 0.10, n = 5; vehicle treated matched controls 2.45 ± 0.56, n = 5, p 0.01).
In order to distinguish further between a long-term prophylactic or a temporary suppressive effect, animals received the drug from the day of active immunization until day 11.
Histological analysis was performed on selected animals with aEAE. […] In a study on EAE, induced by myelin oligodendrocyte glycoprotein (MOG)-specific T-cells, the lack of neurological signs was ascribed to a decrease of macrophages and parenchymal inflammation, whereas perivascular inflammation and the synthesis of TNF, IFN-gamma, and interleukin-6 was clearly present. In our system, however, the timely onset of paralysis and the morphologically similar appearance of infiltrates in some of the treated animals argues against such a phenomenon. We propose that during rolipram treatment of clinically manifest EAE, suppression of local TNF production in addition to its other effects is crucial regardless of the discrepancy between the histological and clinical scores. Using in-situ hybridization, it was shown recently that the present of TNF expressing cells in the CNS correlates well with the clinical signs in EAE. Using this approach it should be possible to identify the rolipram-sensitive cell types in EAE and MS lesions - inflammatory cells, glial cells, or both.

In the case of `COc1ccc(C2CNC(=O)C2)cc1OC1CCCC1` (stereo not shown) [Rolipram, 4-[(3-cyclopentyloxy)-4-methoxyphenyl]-2-pyrrolidinone], the “TNF/LT (lymphotoxin) production” value [1] was “inhibited in a dose range comparable to the human lines”, the TNF production [2] was “selectively inhibited TNF production by human MBP-specific T-cell lines (TCL) in a dose-dependent manner” and the “lesions in the brain detected by Magnetic Resonance Imaging (MRI)” value [3] was “None of the Rolipram treated animals developed detectable lesions”. For the same compound, the “clinical symptoms consistent with EAE” value ([3]; three marmosets) was “None of the Rolipram treated animals developed symptoms”, the “appearance of neurological symptoms” value ([4]; administered from day 7 through day 23 in aEAE, as monotherapy or in various combinations) was “completely prevented” and the “histological analysis: cellular infiltrates” value ([4]; animals with aEAE treated after onset of clinical signs) was “two or three animals that were treated after onset of clinical signs showed cellular infiltrates similar to those in the controls”. For the same compound, the disease progression ([4]; clinically manifest EAE, treatment started within 6 hours of the onset of symptoms) was “disease did only progress moderately”, the “animals developing grade 4 (paraplagia)” value ([4]; clinically manifest EAE, treatment started within 6 hours of the onset of symptoms, one typical experiment) was “None of the rolipram-treated animals developed grade 4” and the “disease severity and duration” value ([4]; drug given from the day of active immunization until day 11) was “otherwise similar compared to the controls”. For the same compound, the “histological analysis: cellular lesions” value ([4]; prophylactically treated animals with aEAE) was “only few and mild cellular lesions”.
